Laboratory results taken from US20110059097A1 (UNIVERSITY HEALTH NETWORK, published 2011).
Results are given in words; binding and its absence hold for the method and conditions named. Some entries that bind do so weakly or less than the wild type.

Key:
[1] = target: T1, human MFAP4 on ex vivo-expanded human DNT cells (human) (UniProt P55083); test: flow cytometry on ex vivo-expanded human DNT cells
T1 sequence: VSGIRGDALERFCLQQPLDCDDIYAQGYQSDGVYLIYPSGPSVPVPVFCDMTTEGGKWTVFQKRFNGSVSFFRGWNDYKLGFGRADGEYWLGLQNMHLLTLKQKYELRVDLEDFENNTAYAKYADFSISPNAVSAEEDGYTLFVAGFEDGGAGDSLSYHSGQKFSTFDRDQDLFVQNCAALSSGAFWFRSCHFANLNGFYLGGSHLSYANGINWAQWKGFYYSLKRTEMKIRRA

[2] = target: T1, human MFAP4 on ex vivo-expanded human DNT cells (human); test: flow cytometry on human DNT cells, 10 days after ex vivo expansion

B1: G1 monoclonal antibody (antibody, V domains shown)
VH: EVKLVESGGGLVQPGRSLKLSCAASGFPFSNYGMAWVRQAPTKGLAWVATISYDGRSTYYRDSVKGRFTISRNNAKSTLYLQMDSLRSEDTATYYCVRHELPEDHWGQGVMVTVSS
VL: DIVMTQSPFSLAVSEGEMVTINCKSGQSLLSSGNQKNYLAWYQQKPGQSPKLLIYYSSTRQSGVPDRFIGSGSGTDFTLTISDVQAEDLADYYCLQHYSSPFTFGSGTKLEIK
notes: Hybridoma monoclonal antibody raised against cell surface molecules of tumor-reactive mouse DNT cells; also called G1 mAb; mAb (clone: G1)
binding [1]: binds | binding [2]: binds
